Each structure is given as a SMILES string. The list shows only some results of the screen, not a fair sample: it is rich in T/C values a quarter to a half above the control, in often repeated tests (any T/C) and in doses without a T/C. Other doses and runs of a compound stand elsewhere. T/C is the treated group as % of the vehicle group. Some doses have a count of surviving animals in place of a T/C: the source holds a T/C of zero for them, seemingly a mark for toxic or unscored doses. Some survivor counts are full or nearly so, which does not show that the dose was tolerated: the source hardly ever lists a survival T/C far under the control, and the zero likely stands for such cases as well. Counts of survivors are from the toxicity check (mostly the fifth day) where no day follows; animals may have died later. Schedule codes are those of the source, read here as Q, the interval in days (D) or hours (H), X, the number of doses. Some entries were tested several times; their values stand side by side, smallest first. Signs of the kind (2×) give the number of equal values in this list. For survival time, the PubChem record calls one and a half times the control and up active, and a quarter to a half above the control has no call in these data; cut-offs in other NCI protocols can differ. Some T/C values are followed by the survivors on the day toxicity was checked, most often the fifth; where none is given, no animal had died by that day.

This experiment has as its system P388 leukemia ip, CD2F1 mice, survival T/C. Nature of the experiment: NCI In Vivo Anticancer Drug Screen. Data for tumor model P388 Leukemia (intraperitoneal) in CD2F1 (CDF1) mice. As to conditions: T/C endpoint: median survival time, higher T/C = longer survival.
Where [1] appears, read: dose: 100.0 mg/kg/injection, schedule: Q01DX005 (ip), vehicle: Klucel (hydroxypropylcellulose) (HPC).
Where [2] appears, read: dose: 200.0 mg/kg/injection, schedule: Q01DX005 (ip), vehicle: Klucel (hydroxypropylcellulose) (HPC).
Where [3] appears, read: dose: 200.0 mg/kg/injection, schedule: Q01DX005 (ip), vehicle: saline with Tween-80.
Setting [4] is: dose: 25.0 mg/kg/injection, schedule: Q01DX009 (ip), vehicle: saline with Tween-80.
The mark [5] stands for this setting: dose: 100.0 mg/kg/injection, schedule: Q01DX009 (ip), vehicle: saline with Tween-80.
The mark [6] stands for this setting: dose: 200.0 mg/kg/injection, schedule: Q01DX009 (ip), vehicle: saline with Tween-80.
[7] abbreviates: dose: 100.0 mg/kg/injection, schedule: Q01DX009 (ip), vehicle: saline.

For `CC(C)c1ccc(C(Cc2ccccc2)N(CCO)CCO)cc1` (stereo not given), the survivor count runs as follows: under setting [1], 2 of 5; under setting [2], 0 of 5.
Turning to `CC(=O)c1c(C)[nH]c2c1[nH]c1ccccc12`, the survivor count (dose: 240.0 mg/kg/injection, schedule: Q01DX005 (ip), vehicle: Klucel (hydroxypropylcellulose) (HPC)) was 5 of 6.
With `C/C(=C1\C(=O)Oc2c(ccc3ccccc23)C1=O)c1ccc2ccccc2c1O`, the survivor count runs as follows: (dose: 100.0 mg/kg/injection, schedule: Q01DX005 (ip), vehicle: saline with Tween-80) 6 of 6; under setting [3], 6 of 6.
In the case of `Nc1nc(Cl)nc2c1ncn2C1CCCO1` (stereo not given), the survivor count by setting is: (dose: 100.0 mg/kg/injection, schedule: Q04DX002 (ip), vehicle: Klucel (hydroxypropylcellulose) (HPC)) 0 of 6; (dose: 200.0 mg/kg/injection, schedule: Q04DX002 (ip), vehicle: Klucel (hydroxypropylcellulose) (HPC)) 0 of 6; (dose: 400.0 mg/kg/injection, schedule: Q04DX002 (ip), vehicle: Klucel (hydroxypropylcellulose) (HPC)) 1 of 6.
Consider `CCN(CC)Cc1cc(N=Nc2ccc(N(C)C)cc2)ccc1O`, for which the survivor count (dose: 400.0 mg/kg/injection, schedule: Q01DX001 (ip), vehicle: saline with Tween-80) is 6 of 6.
For the molecule `COc1cccc(C[n+]2ccccc2C#N)c1OC`, the survivor count (dose: 25.0 mg/kg/injection, schedule: Q04DX002 (ip), vehicle: saline) is given as 0 of 6; the survivor count (dose: 50.0 mg/kg/injection, schedule: Q04DX002 (ip), vehicle: saline) is 0 of 6; the survivor count (dose: 100.0 mg/kg/injection, schedule: Q01DX002 (ip), vehicle: saline) is 0 of 5; the survivor count (dose: 100.0 mg/kg/injection, schedule: Q04DX002 (ip), vehicle: saline) is 0 of 6; the survivor count (dose: 200.0 mg/kg/injection, schedule: Q01DX002 (ip), vehicle: saline) is on record as 0 of 5; the survivor count (dose: 200.0 mg/kg/injection, schedule: Q04DX002 (ip), vehicle: saline) is given as 0 of 6. Also, the survivor count is 0 of 5 (dose: 400.0 mg/kg/injection, schedule: Q01DX002 (ip), vehicle: saline) and 0 of 6 (dose: 400.0 mg/kg/injection, schedule: Q04DX002 (ip), vehicle: saline).
Turning to `N=C(N)c1ccc(N=Nc2c(O)ccc3cc(O)ccc23)cc1`, the T/C was 129 % of control [5 of 6 alive] (dose: 25.0 mg/kg/injection, schedule: Q01DX005 (ip), vehicle: Klucel (hydroxypropylcellulose) (HPC), evaluated on day 20); 103 % of control (dose: 25.0 mg/kg/injection, schedule: Q01DX005 (ip), vehicle: Klucel (hydroxypropylcellulose) (HPC), evaluated on day 21); 114 and 119 % of control (dose: 25.0 mg/kg/injection, schedule: Q01DX005 (ip), vehicle: Klucel (hydroxypropylcellulose) (HPC), evaluated on day 30); 127 % of control (dose: 50.0 mg/kg/injection, schedule: Q01DX005 (ip), vehicle: Klucel (hydroxypropylcellulose) (HPC), evaluated on day 20); 91 % of control (dose: 50.0 mg/kg/injection, schedule: Q01DX005 (ip), vehicle: Klucel (hydroxypropylcellulose) (HPC), evaluated on day 21); 112 [5 of 6 alive] and 122 % of control (dose: 50.0 mg/kg/injection, schedule: Q01DX005 (ip), vehicle: Klucel (hydroxypropylcellulose) (HPC), evaluated on day 30). In addition, the T/C runs as follows: (dose: 100.0 mg/kg/injection, schedule: Q01DX005 (ip), vehicle: Klucel (hydroxypropylcellulose) (HPC), evaluated on day 20) 146 % of control; (dose: 100.0 mg/kg/injection, schedule: Q01DX005 (ip), vehicle: Klucel (hydroxypropylcellulose) (HPC), evaluated on day 21) 87 % of control; (dose: 100.0 mg/kg/injection, schedule: Q01DX005 (ip), vehicle: Klucel (hydroxypropylcellulose) (HPC), evaluated on day 30) 117 % of control. In addition, the survivor count reads like this: under setting [1], 0 of 6; under setting [2], 0 of 6 (3×).
With `Cc1nn(C)pc1P(C)(=S)n1nc(N(C)C)np1` (stereo not given), the survivor count under setting [2] was 4 of 6.
`CC1(C)S[C@@H]2C(Cl)=C(Cl)C(=O)N2[C@H]1C(=O)O`: the survivor count under setting [3] is 1 of 6.
`CCCCCCCCCCCCCCCCCCCCCC(=O)Nc1ccn(C2OC(CO)C(O)C2O)c(=O)n1` (stereo not given): the T/C (dose: 0.39 mg/kg/injection, schedule: Q01DX009 (ip), vehicle: saline with Tween-80) is 132 % of control; the T/C (dose: 0.78 mg/kg/injection, schedule: Q01DX009 (ip), vehicle: saline with Tween-80) was 138 % of control; the T/C (dose: 12.5 mg/kg/injection, schedule: Q01DX009 (ip), vehicle: saline with Tween-80) is 144 % of control; the T/C under setting [4] is on record as 117, 161, 309 % of control. For the same molecule, the survivor count reads like this: under setting [4], 6 of 6; (dose: 50.0 mg/kg/injection, schedule: Q01DX009 (ip), vehicle: saline with Tween-80) 6 of 6; under setting [5], 6 of 6; under setting [6], 4 of 6.
As for `COc1ccc(C(=O)Nc2ccccc2CCC2CCCCN2C)cc1` (stereo not given), the survivor count (dose: 50.0 mg/kg/injection, schedule: Q01DX009 (ip), vehicle: suspension in saline) was 1 of 6 and the survivor count (dose: 100.0 mg/kg/injection, schedule: Q01DX009 (ip), vehicle: suspension in saline) was 0 of 6.
For the molecule `COc1ccccc1OC(C)=O`, under setting [7], the survivor count is reported as 6 of 6.
Take `Cc1nc(C(=O)N=C(N)N)c(N)nc1-c1ccccc1`: the survivor count is 5 of 6 (dose: 60.0 mg/kg/injection, schedule: Q01DX005 (ip), vehicle: saline with Tween-80); 3 of 6 (dose: 120.0 mg/kg/injection, schedule: Q01DX005 (ip), vehicle: saline with Tween-80); 0 of 6 (dose: 240.0 mg/kg/injection, schedule: Q01DX005 (ip), vehicle: saline with Tween-80).
As to `CCN(CC)c1ccc2nc3ccc(=[N+](CC)CC)cc-3oc2c1`, the survivor count reads like this: (dose: 30.0 mg/kg/injection, schedule: Q01DX005 (ip), vehicle: saline) 4 of 6; (dose: 60.0 mg/kg/injection, schedule: Q01DX005 (ip), vehicle: saline) 0 of 6; (dose: 240.0 mg/kg/injection, schedule: Q01DX005 (ip), vehicle: saline) 0 of 6.
As for `Oc1ccccc1O`, the survivor count under setting [7] was 2 of 6; the survivor count (dose: 200.0 mg/kg/injection, schedule: Q01DX009 (ip), vehicle: saline) was 0 of 6; the survivor count (dose: 400.0 mg/kg/injection, schedule: Q01DX009 (ip), vehicle: saline) is 0 of 6; the survivor count (dose: 600.0 mg/kg/injection, schedule: Q01DX009 (ip), vehicle: saline) was 0 of 6.
`[Cu+].[NH-]CCCN=Cc1ccccc1O`: the survivor count (dose: 100.0 mg/kg/injection, schedule: Q01DX001 (ip), vehicle: saline sonified) is reported as 3 of 6.
As to `CS(=O)(=O)CS(=O)CS(=O)CS(=O)CC(NC(=O)CCC(N)C(=O)O)C(=O)O` (stereo not given), the survivor count (dose: 200.0 mg/kg/injection, schedule: Q01DX005 (ip), vehicle: suspension in saline) is given as 3 of 5.
For `CSCCC(NC(=O)C(Cc1c[nH]c2ccccc12)NC(=O)OC(C)(C)C)C(=O)NN` (stereo not given), the T/C by setting is: (dose: 100.0 mg/kg/injection, schedule: Q01DX009 (ip), vehicle: Klucel (hydroxypropylcellulose) (HPC)) 127 % of control; (dose: 200.0 mg/kg/injection, schedule: Q01DX009 (ip), vehicle: Klucel (hydroxypropylcellulose) (HPC)) 127 % of control.
In the case of `CNCCNc1ncc([N+](=O)[O-])s1`, the survivor count (dose: 100.0 mg/kg/injection, schedule: Q01DX001 (ip), vehicle: saline) is 4 of 6 and 6 of 6.
In the case of `O=C1C=C(O)CC2(CCCCC2)C1`, the survivor count (dose: 50.0 mg/kg/injection, schedule: Q01DX005 (ip), vehicle: Klucel (hydroxypropylcellulose) (HPC)) is given as 5 of 5.
`CC1OC(=O)C(=O)/C1=C1/CC(C)(C)N(c2ccccc2)N1` (stereo not given): the T/C under setting [5] is 131 % of control. Moreover, the survivor count under setting [6] is 6 of 6.
Take `c1nnc(NCNc2nncs2)s1`: the survivor count (dose: 400.0 mg/kg/injection, schedule: Q04DX003 (ip), vehicle: saline) is on record as 4 of 6.
